Source: PMC13002332
These are yes or no findings as the source states them, for the method shown. Binding seen in cells or lysates may run through a third protein. These calls come from enrichment with a bait or labelling near it, and not all partners need be listed. Tags and fused reporters may be left off the sequences shown.

Amino acid sequences for entries named in this document (tags omitted).
UniProt Q569L8: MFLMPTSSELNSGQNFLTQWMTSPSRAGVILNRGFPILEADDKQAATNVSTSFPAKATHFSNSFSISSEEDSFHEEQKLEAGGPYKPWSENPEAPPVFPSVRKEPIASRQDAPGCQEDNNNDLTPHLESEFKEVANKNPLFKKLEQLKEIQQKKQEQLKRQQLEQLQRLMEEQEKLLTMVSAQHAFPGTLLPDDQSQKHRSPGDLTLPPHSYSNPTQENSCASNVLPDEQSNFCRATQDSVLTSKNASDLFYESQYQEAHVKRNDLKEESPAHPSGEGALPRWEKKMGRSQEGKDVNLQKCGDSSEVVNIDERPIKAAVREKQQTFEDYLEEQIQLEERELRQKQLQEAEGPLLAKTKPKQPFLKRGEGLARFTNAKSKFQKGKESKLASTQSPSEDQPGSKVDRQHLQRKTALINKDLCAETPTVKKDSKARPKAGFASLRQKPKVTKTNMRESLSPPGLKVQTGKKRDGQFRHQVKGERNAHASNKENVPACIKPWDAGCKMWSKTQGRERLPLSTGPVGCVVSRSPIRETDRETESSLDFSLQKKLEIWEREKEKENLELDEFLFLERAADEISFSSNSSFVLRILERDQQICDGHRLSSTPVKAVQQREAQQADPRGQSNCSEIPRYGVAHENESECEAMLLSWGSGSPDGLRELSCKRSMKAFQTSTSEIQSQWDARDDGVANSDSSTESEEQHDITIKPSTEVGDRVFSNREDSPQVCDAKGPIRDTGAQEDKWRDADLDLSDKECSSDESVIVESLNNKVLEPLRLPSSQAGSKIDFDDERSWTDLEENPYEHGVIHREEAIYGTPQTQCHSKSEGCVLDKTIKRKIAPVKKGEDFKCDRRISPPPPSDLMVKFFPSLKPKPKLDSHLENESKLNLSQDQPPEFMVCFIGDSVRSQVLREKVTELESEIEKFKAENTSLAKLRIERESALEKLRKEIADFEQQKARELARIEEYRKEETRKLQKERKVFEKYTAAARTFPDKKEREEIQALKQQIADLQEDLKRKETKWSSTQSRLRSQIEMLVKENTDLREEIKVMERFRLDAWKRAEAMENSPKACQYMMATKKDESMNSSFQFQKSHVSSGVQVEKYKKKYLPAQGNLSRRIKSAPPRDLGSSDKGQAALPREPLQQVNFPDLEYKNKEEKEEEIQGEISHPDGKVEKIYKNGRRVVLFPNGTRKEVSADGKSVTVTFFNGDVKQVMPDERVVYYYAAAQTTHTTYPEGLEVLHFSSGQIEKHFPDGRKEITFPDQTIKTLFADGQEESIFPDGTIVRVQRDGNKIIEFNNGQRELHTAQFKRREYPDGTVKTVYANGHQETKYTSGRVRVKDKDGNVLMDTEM
UniProt Q8C4X2: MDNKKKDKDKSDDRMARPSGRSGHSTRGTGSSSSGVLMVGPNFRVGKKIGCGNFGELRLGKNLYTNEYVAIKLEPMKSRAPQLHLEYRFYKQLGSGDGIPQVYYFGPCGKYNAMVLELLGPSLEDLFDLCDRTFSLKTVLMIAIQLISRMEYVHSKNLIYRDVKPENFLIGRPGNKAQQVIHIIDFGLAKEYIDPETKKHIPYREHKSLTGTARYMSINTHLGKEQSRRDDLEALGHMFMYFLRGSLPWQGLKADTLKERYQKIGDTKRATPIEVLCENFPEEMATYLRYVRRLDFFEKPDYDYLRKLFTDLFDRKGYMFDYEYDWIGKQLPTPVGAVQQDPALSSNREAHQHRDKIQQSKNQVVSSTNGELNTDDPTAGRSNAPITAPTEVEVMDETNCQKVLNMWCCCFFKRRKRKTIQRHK
UniProt Q80VP1: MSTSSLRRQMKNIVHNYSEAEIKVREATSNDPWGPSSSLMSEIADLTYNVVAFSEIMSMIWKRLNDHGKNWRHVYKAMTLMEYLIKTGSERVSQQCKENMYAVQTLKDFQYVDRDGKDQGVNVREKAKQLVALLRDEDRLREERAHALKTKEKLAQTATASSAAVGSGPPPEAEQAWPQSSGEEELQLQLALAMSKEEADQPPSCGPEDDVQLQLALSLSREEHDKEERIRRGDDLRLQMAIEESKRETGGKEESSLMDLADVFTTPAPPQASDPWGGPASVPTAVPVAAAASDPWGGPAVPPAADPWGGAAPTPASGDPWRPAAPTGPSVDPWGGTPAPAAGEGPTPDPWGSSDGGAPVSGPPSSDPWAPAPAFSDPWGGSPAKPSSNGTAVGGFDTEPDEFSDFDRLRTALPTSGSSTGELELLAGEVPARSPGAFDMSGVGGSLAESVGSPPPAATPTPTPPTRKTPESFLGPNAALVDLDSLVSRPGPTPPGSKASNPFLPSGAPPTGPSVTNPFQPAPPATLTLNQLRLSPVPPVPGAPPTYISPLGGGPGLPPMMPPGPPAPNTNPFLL

Each substance was assayed against T1, Cilia- and flagella-associated protein 77 (CFAP77), endogenous in mouse testis (mouse (endogenous in testis)) (assay: affinity purification with mass spectrometry; immunoprecipitation with an anti-CFAP77 antibody on Dynabeads from mouse testis lysates, LC-MS/MS; Cfap77 KO testes with the same beads and antibody as negative control).
T1 sequence: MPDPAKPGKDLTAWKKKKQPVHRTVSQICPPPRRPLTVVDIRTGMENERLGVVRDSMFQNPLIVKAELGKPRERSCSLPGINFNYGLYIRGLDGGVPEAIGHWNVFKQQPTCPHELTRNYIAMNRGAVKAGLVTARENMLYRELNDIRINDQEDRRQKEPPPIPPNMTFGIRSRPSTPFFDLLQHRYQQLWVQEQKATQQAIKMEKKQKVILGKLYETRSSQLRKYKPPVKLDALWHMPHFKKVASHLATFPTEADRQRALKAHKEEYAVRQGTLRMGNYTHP

binding | Substance
binds | CENPJ, endogenous in mouse testis (from UniProt Q569L8 1-1344)
binds | CSNK1G3, endogenous in mouse testis (from UniProt Q8C4X2 1-424)
binds | EPN1, endogenous in mouse testis (from UniProt Q80VP1 1-575)
